PMC9135303, “Interaction of fungal lipase with potential phytotherapeutics” (PLoS ONE, 2022)

How the values were obtained:
[1] = test system: Aspergillus niger lipase; assay: Fluorescence quenching of lipase (Stern-Volmer and double-logarithmic plots); assay type: binding; details: pH 7.4
Experimental: Lipase and HSA were dialyzed against KCl- buffer (pH 7) for 24 hrs. Stock solution of lipase was prepared in 10 mM phosphate buffer at pH 7.4 to obtain a particular concentration. […] These samples were incubated at 298.0 K for about 24 hrs.
Fluorescence spectra were recorded on Hitachi F-4010 spectrofluorometer equipped with circulating water bath to maintain the temperature of the cell. The quartz cell of path length 1.0 cm and band slit of 5.0 nm were used for all experiments. The excitation wavelength was 280 nm for lipase and HSA. Emission spectra were recorded from 300–450 nm for lipase and HSA protein.
Herein, the fluorescence intensities were corrected for absorption of the exciting light and reabsorption of the emitted light to decrease the inner filter effect according to the following equation [10] (Chi & Liu, 2011): Fcorr=Fobs10^Aex+Aem/2, Where Fcorr and Fobs are corrected and experimentally measured fluorescence intensities, respectively. […] The fluorescence intensity utilized in this paper was the corrected intensity.
Emission fluorescence spectra were measured in the 300–450 nm interval, at a fixed excitation wavelength of 280 nm. Occurrence of an emission maximum at 344 nm in the fluorescence spectrum of lipase can be attributed to the presence of tryptophan residue of lipase. […]

[2] = test system: Aspergillus niger lipase; assay: Far-UV circular dichroism of lipase; details: 24 hours at 298.15 K, pH 7.4, native -9.34

SMILES: Cc1ccc(C(C)C)cc1O [carvacrol]
- n (stoichiometry of association process / number of binding sites) [1]: 2.04
- MRE x 10^3 at 222nm (complex_400 μM) [2]: -7.71
